Reference: PubChem BioAssay AID504791 (Drosophila RNAi Screening Center, 2011)

- Test: 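Genes of the fly required for silencing by miRNA, siRNA or endo-siRNA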 (primary screen)
- System: Drosophila S2-derived reporter cells
- Knock-down reagent: long dsRNA against Drosophila genes, about 150-250 ng dsRNA per well (siRNA assay); about 80-120 ng (miRNA assay)
- Time to read-out: about 5 days (siRNA assay); about 4 days (miRNA assay)
- Conditions: copper sulfate induction of reporters: 25 µM (siRNA assay); 200 mM stated (miRNA assay), 1-2 days before reading
- Detection: 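Per-well ratio of Renilla over firefly light, expressed relative to that plate's average ratio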
- Scale: siRNA reporter hit score: higher = 3 marks a strong hit with raised ratio; -3 a strong hit with lowered ratio
- Call rule: 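a well was a first-pass pick when its plate-scaled ratio rose above 1.5 (siRNA assay) or 1.6 (miRNA assay), or dropped below 0.6; a gene counted only if two separate dsRNAs agreed on retest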
The screen tested about 23,000 reagents; shown is a random part of those with a known target gene and a result. In the full data, 199 (0.86%) got an active call. 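Plate-scaled ratios behind the calls are not deposited; printed light signals are raw; many rows marked increased or decreased are still called inactive.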 Reagents against one gene are numbered here. A plus sign joins genes that one reagent is predicted to hit.

| gene | dsRNA no. | siRNA reporter hit score | stable siRNA reporter change | miRNA reporter change | stable assay Renilla, run 1 (luminescence) | stable assay firefly, run 1 (luminescence) | call |
| --- | --- | --- | --- | --- | --- | --- | --- |
| CG15909 | 1 | – | – | – | 7440 | 4.23e5 | inactive |
| Cyp40 | 1 | – | – | – | 7198 | 3.51e5 | inactive |
| CheB42a | 1 | – | – | – | 3540 | 4.17e5 | inactive |
| mago | 1 | – | – | – | 11686 | 6.42e5 | inactive |
| CG7058 | 1 | – | – | – | 5076 | 4.17e5 | inactive |
| CG14490 | 1 | – | – | – | 5214 | 3.09e5 | inactive |
| CaMKII | 1 | – | – | – | 6814 | 3.46e5 | inactive |
| Cyp313a2 | 1 | – | – | – | 6379 | 3.38e5 | inactive |
| Obp44a | 1 | – | – | – | 5888 | 3.87e5 | inactive |
| ast | 1 | – | – | – | 12678 | 1.41e5 | inactive |
| Ir7e | 1 | – | – | – | 4947 | 5.67e5 | inactive |
| CG42323 | 1 | – | – | – | 4656 | 3.85e5 | inactive |
| CG42323 | 2 | – | – | – | 11816 | 5.71e5 | inactive |
| fru | 1 | – | reporter ratio raised past the hit cutoff | – | 6112 | 1.91e5 | inactive |
| fru | 2 | – | – | – | 4147 | 3.32e5 | inactive |
| fru | 3 | – | – | – | 5375 | 4.54e5 | inactive |
| fru | 4 | – | – | – | 7795 | 3.89e5 | inactive |
| AlaRS | 1 | – | – | – | 12020 | 1.30e6 | inactive |
| CG32087 | 1 | – | – | – | 5292 | 3.41e5 | inactive |
| gNacalpha | 1 | – | – | – | 8050 | 6.25e5 | inactive |
| CG12259 | 1 | – | – | – | 6747 | 3.86e5 | inactive |
| CG12259 | 2 | – | – | – | 3743 | 3.24e5 | inactive |
| Dhc1 | 1 | – | – | – | 7051 | 4.45e5 | inactive |
| CG30349 | 1 | – | – | – | 6326 | 4.46e5 | inactive |
| CG30349 | 2 | – | – | – | 6284 | 4.77e5 | inactive |
| Lst | 1 | – | – | – | 6406 | 3.64e5 | inactive |
| Lamtor5 | 1 | – | – | – | 8147 | 4.33e5 | inactive |
| Cnot4 | 1 | – | – | – | 4935 | 4.13e5 | inactive |
| Cnot4 | 2 | – | – | – | 4456 | 3.41e5 | inactive |
| CG9192 | 1 | – | – | – | 5439 | 3.34e5 | inactive |
| Pde8 | 1 | – | – | – | 1.25e5 | 4.81e5 | inactive |
| Sbf | 1 | – | reporter ratio raised past the hit cutoff | – | 8076 | 2.50e5 | active |
| CanA-14F | 1 | – | – | – | 5655 | 3.94e5 | inactive |
| CanA-14F | 2 | – | – | – | 2720 | 2.72e5 | inactive |
| eIF4E5 | 1 | – | – | – | 7211 | 4.89e5 | inactive |
| pns | 1 | – | – | – | 6054 | 2.89e5 | inactive |
| Tbp | 1 | – | – | – | 5952 | 3.11e5 | inactive |
| Tbp | 2 | – | – | reporter ratio raised past the hit cutoff | 5327 | 3.67e5 | inactive |

Taken from above.
Pde8, call → inactive
Under “stable assay Renilla, run 1 (luminescence)”, CG14490 is entered as 5214
Under “stable assay Renilla, run 1 (luminescence)”, Dhc1 reads 7051
Entry for Tbp #1 in “stable assay firefly, run 1 (luminescence)”: 3.11e5
CG15909, stable assay Renilla, run 1 (luminescence) = 7440
Under “call”, Ir7e is entered as inactive

The list goes on:
| gene | dsRNA no. | siRNA reporter hit score | stable siRNA reporter change | miRNA reporter change | stable assay Renilla, run 1 (luminescence) | stable assay firefly, run 1 (luminescence) | call |
| --- | --- | --- | --- | --- | --- | --- | --- |
| tef | 1 | – | – | – | 9922 | 3.80e5 | inactive |
| tef | 2 | – | – | – | 8711 | 5.75e5 | inactive |
| mkg-p + Tpt | 1 | – | – | – | 5551 | 4.65e5 | inactive |
| NtR | 1 | – | – | – | 6771 | 3.29e5 | inactive |
| Pak | 1 | – | – | – | 7826 | 3.22e5 | inactive |
| Pak | 2 | – | – | – | 4236 | 3.80e5 | inactive |
| CenB1A | 1 | – | – | – | 4823 | 4.15e5 | inactive |
| bark | 1 | – | – | – | 7079 | 3.59e5 | inactive |
| CG14694 | 1 | – | – | – | 6700 | 3.50e5 | inactive |
| Tsf3 | 1 | – | – | – | 7946 | 2.84e5 | inactive |
| CG31343 | 1 | – | – | – | 10976 | 5.11e5 | inactive |
| CG15602 | 1 | – | – | – | 4283 | 3.53e5 | inactive |
| CG31189 | 1 | – | – | – | 6667 | 2.51e5 | inactive |
| Patsas | 1 | – | – | – | 86189 | 4.42e5 | inactive |
| CG13609 | 1 | – | – | – | 6928 | 3.52e5 | inactive |
| CG13609 | 2 | – | – | – | 4020 | 3.30e5 | inactive |
| PpD3 | 1 | – | – | – | 8143 | 3.60e5 | inactive |
| CG6421 | 1 | – | – | – | 6139 | 3.65e5 | inactive |
| Mettl14 | 1 | – | – | – | 1.62e5 | 2.72e5 | inactive |
| CG4884 | 1 | – | – | – | 7155 | 4.56e5 | inactive |
| CG14740 | 1 | – | – | – | 10007 | 4.73e5 | inactive |
| CG12923 | 1 | – | – | – | 6612 | 4.81e5 | inactive |
| CG5850 | 1 | – | – | – | 9223 | 5.26e5 | inactive |
| faf | 1 | – | – | – | 5452 | 2.77e5 | inactive |
| CG7239 | 1 | – | – | – | 13720 | 1.39e5 | inactive |
| CG7239 | 2 | – | – | – | 4660 | 3.61e5 | inactive |
| sim | 1 | – | – | – | 6994 | 4.09e5 | inactive |
| CG7518 | 1 | – | – | – | 6063 | 3.98e5 | inactive |
| Trissin | 1 | – | – | – | 7765 | 5.45e5 | inactive |
| Ppox | 1 | – | – | – | 7395 | 3.30e5 | inactive |
| CG31251 | 1 | – | – | – | 8047 | 5.74e5 | inactive |
| Wbp2 | 1 | – | – | – | 6834 | 3.30e5 | inactive |
| CG43737 | 1 | – | – | – | 5556 | 4.03e5 | inactive |
| CG13728 | 1 | – | – | – | 8203 | 4.85e5 | inactive |
| Ubc6 | 1 | – | reporter ratio raised past the hit cutoff | – | 17752 | 4.33e5 | inactive |
| Spase25 | 1 | – | – | – | 8426 | 5.85e5 | inactive |
| su(f) | 1 | – | – | – | 6068 | 3.70e5 | inactive |
| Su(H) | 1 | – | – | – | 7716 | 4.05e5 | inactive |
| beat-Va | 1 | – | – | – | 7707 | 4.92e5 | inactive |
| CG32264 | 1 | 3 | – | – | 3891 | 2.76e5 | inactive |
| CG32264 | 2 | – | – | – | 5691 | 2.95e5 | inactive |
| CG32264 | 3 | – | – | – | 7499 | 3.74e5 | inactive |
| CG32264 | 4 | – | – | – | 4231 | 3.87e5 | inactive |
| CG32264 | 5 | – | – | – | 4926 | 2.02e5 | inactive |
| CG4607 | 1 | – | – | – | 5227 | 2.59e5 | inactive |
| CG31076 | 1 | – | – | – | 8301 | 4.06e5 | inactive |
| Atg8a | 1 | – | – | – | 6047 | 3.93e5 | inactive |
| CG8838 | 1 | – | – | – | 32744 | 3.41e5 | inactive |
| glob1 | 1 | – | – | – | 10293 | 4.94e5 | inactive |
| CG33322 | 1 | – | – | – | 6150 | 3.88e5 | inactive |
| CG5592 | 1 | – | – | – | 6702 | 5.34e5 | inactive |
| CG3625 | 1 | – | – | – | 4332 | 3.87e5 | inactive |
| CG3625 | 2 | – | – | – | 12486 | 4.29e5 | inactive |
| BoYb | 1 | – | – | – | 6488 | 2.54e5 | inactive |
| CG5346 | 1 | – | – | – | 9503 | 4.92e5 | inactive |
| Sec22 | 1 | – | – | – | 8759 | 4.49e5 | inactive |
| CG32269 + CG32270 | 1 | – | – | – | 6062 | 3.56e5 | inactive |
| Phm | 1 | – | – | – | 7465 | 1.07e6 | inactive |
| CG30156 | 1 | – | – | – | 4763 | 5.38e5 | inactive |
| Nhe1 | 1 | – | – | – | 9995 | 4.04e5 | inactive |
| srw | 1 | – | – | – | 7318 | 5.55e5 | inactive |
| glec | 1 | – | – | – | 8432 | 3.79e5 | inactive |
| CG9452 | 1 | – | – | – | 8351 | 3.41e5 | inactive |
| CG9452 | 2 | – | – | – | 3691 | 3.12e5 | inactive |
| Ir7d | 1 | – | – | – | 6767 | 4.32e5 | inactive |
| PIP5K59B | 1 | – | – | – | 97257 | 2.74e5 | inactive |
| PIP5K59B | 2 | – | – | – | 7236 | 3.43e5 | inactive |
| CG3847 | 1 | – | – | – | 5262 | 3.90e5 | inactive |
| CG3847 | 2 | – | – | – | 5495 | 4.47e5 | inactive |
